The target of the assay is T1, CREPT, endogenous (human (endogenous in SK-LU-1, H441, HEK-293T)) (UniProt Q9NQG5).
T1 sequence: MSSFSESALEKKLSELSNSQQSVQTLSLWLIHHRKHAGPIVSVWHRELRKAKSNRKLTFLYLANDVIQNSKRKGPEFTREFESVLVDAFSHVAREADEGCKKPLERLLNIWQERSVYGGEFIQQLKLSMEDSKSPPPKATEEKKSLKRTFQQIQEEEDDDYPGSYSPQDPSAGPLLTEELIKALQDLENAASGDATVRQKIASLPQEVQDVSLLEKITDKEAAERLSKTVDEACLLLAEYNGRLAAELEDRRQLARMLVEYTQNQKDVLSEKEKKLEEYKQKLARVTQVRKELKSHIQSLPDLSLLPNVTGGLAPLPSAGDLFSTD
Kind of assay: co-IP; endogenous CREPT and ERK in HEK-293T under EGF stimulation and in H441 cells.

No constants are given. Whether binding was seen depends on the method and setting. In cells and extracts the contact can be indirect. Binding calls can cover weak binding; strength is not graded here.

Turning to “ERK (extracellular signal-regulated kinase), endogenous (human (endogenous in HEK-293T, H441)) (enzyme)”, the binding result is listed as “binds”.
